Measured values: PubChem BioAssay AID540256 (National Center for Advancing Translational Sciences (NCATS), 2011)
Out of some 300,000 compounds screened, about 3,700 (1.2%) were called active. Inconclusive means that the source gave no clear call. Such entries were picked first, then a sample of the others. The call rests on the fitted dose curve; tested in HEK293 cells. A potency beside an inconclusive call is a rough fit, not a confirmed value.

experiment: qHTS for Inhibitors of binding or entry into cells for Lassa Virus; settings: Lassa virus pseudotype entry inhibition, cell reporter; activity change, negative = inhibition: at 37.9 µM (top of the series) unless noted; further: nearly all actives have a fitted effect of over 50% in size
On the % scale 0 is the no-effect control and ±100 the full control effect; potency means the concentration at half of the fitted maximal effect.

Structure (SMILES)	activity change, negative = inhibition	Potency
CCCCN(C(=O)c1ccc(C)cc1)c1c(N)n(CCC)c(=O)[nH]c1=O	inactive: 4.14%	–
Cc1nc(NC2=NCN(CCCN3CCOCC3)CN2)nc2c(C)cccc12	–	inconclusive: 7.08 µM [inhibitor, partial curve, poor fit]
N#Cc1ccccc1NC(=O)CN(Cc1ccccc1)Cc1ccccc1	–	inconclusive: 35.5 µM [inhibitor, single point]
COc1ccc(NC(=O)CN2C(=O)CSc3ccc(S(=O)(=O)N(C)C)cc32)cc1OC	inactive: 6.99% [at 46.1 µM]	–
c1coc(CNc2nc3nonc3nc2NCc2ccco2)c1	inactive: -10.3%	–
Cc1ccnc(NC(=O)C2CCCN(c3ncnc4c3nc3n4CCCCC3)C2)c1 (stereo not given)	inactive: 22.9% [at 46.1 µM]	–
O=C(Nc1ccc(F)cc1F)c1c(C(F)(F)F)ccnc1Oc1ccc(Cl)cc1	inactive: -22.9%	–
CCOC(=O)c1ccccc1NC(=O)c1c(-c2ccccc2)noc1C	–	inconclusive: 7.08 µM [inhibitor, partial curve, poor fit]
COC(=O)CNC(c1ccccc1)c1cc(Br)ccc1NC(=O)c1ccc(Cl)cc1 (stereo not given)	–	inconclusive: 35.5 µM [inhibitor, single point]
Cn1c(CSc2ncn[nH]2)nc2ccccc21	–	inconclusive: 3.16 µM [activator, partial curve, poor fit]
O=[N+]([O-])c1cc(Cl)ccc1-c1nc(-c2ccncc2)no1	inactive: 0.333%	–
CCOc1ccccc1CN1CCNC(=O)C1CC(=O)NCCc1ccccn1 (stereo not given)	–	inconclusive: 22.4 µM [inhibitor, single point]
COc1cccc(CN(C(=O)c2oc3ccc(Br)cc3c2C)C2CCS(=O)(=O)C2)c1 (stereo not given)	–	inconclusive: 20 µM [inhibitor, single point]
Cn1ncc(Br)c1C(=O)N/N=C/c1cccc(OC2CSC2)c1	inactive: 15.6%	–
C[n+]1ccccc1/C=C/c1c(F)cccc1F	–	inconclusive: 5.62 µM [activator, partial curve, poor fit]
O=C(CSc1nnc(-c2ccccc2)o1)NC1CCS(=O)(=O)C1 (stereo not given)	–	inconclusive: 22.4 µM [activator, single point]
CC(C)C1Oc2ccccc2N(CC(=O)NC2CCCCC2)C1=O (stereo not given)	inactive: -21.7%	–
O=C(Nc1cnc2ccccn2c1=O)c1ccc(F)cc1	–	inconclusive: 1.46 µM [activator, partial curve]
CCN(CC)Cc1ccc(NC(=O)c2sc3cc(Cl)ccc3c2Cl)cc1	–	inconclusive: 22.4 µM [inhibitor, single point]
COc1ccc(OC)c(NC(=O)CN2CCC(C(=O)c3ccc(C)cc3)CC2)c1	–	inconclusive: 29.1 µM [inhibitor, single point]
O=C(O)c1ccc(N2CCCC2=O)cc1	–	inconclusive: 0.58 µM [activator, partial curve, poor fit]
COc1cccc(C2CC(C(F)(F)F)n3ncc(C(=O)Nc4c(C)n(C)n(-c5ccccc5)c4=O)c3N2)c1 (stereo not given)	inactive: 3.53%	–
COc1ccc2nc(SCC(=O)NC3CC3)c(C#N)cc2c1	–	inconclusive: 4.47 µM [inhibitor, single point]

Structure (SMILES)	activity change, negative = inhibition	Potency
Cc1ccc(-n2nnnc2-c2nc3ccccc3s2)cc1	inactive: 0.122%	–
S=C(NCCN1CCOCC1)C(=S)NCCN1CCOCC1	–	inconclusive: 31.6 µM [activator, single point]
Cc1cc(NC(=O)Cn2ccsc2=N)c([N+](=O)[O-])cc1C	–	inconclusive: 0.316 µM [inhibitor, partial curve, poor fit]
O=c1c2ccccc2nnn1CSc1nnc(-c2ccco2)o1	–	inconclusive: 0.651 µM [inhibitor, single point]
CCOc1cc2c(cc1/C=C1/NC(=O)N(CC(=O)OC)C1=O)OCO2	inactive: -5.09%	–
Brc1ccc(-c2nnc(SCCC3OCCCO3)o2)cc1	inactive: -19.9%	–
CC(C)(C)c1ccc(OCc2cnc(Cl)s2)cc1	inactive: 27.5%	–
COCCN(CCOC)Cc1cc(=O)oc2ccc3ccccc3c12	–	inconclusive: 0.499 µM [activator, full curve, poor fit]
COc1ccc(-c2cc(C(=O)Nc3cc(C)n(Cc4ccc(Cl)cc4)n3)no2)cc1OC	–	inconclusive: 4.61 µM [inhibitor, full curve, poor fit]
Cn1c2c(c(=O)n(C)c1=O)C(C(F)(F)F)(C(F)(F)F)N=C(C1CCCCC1)N2	–	inconclusive: 17.8 µM [inhibitor, single point]
Cc1ccc(O)c(N=CC2=C(O)c3ccccc3C2=O)c1	–	inconclusive: 35.5 µM [inhibitor, single point]
COc1ccc(N2Cc3cccc(C(=O)Nc4ccc(C)cc4)c3C2=O)cc1	–	inconclusive: 35.5 µM [activator, single point]
COCCCN1CN=C(NS(=O)(=O)c2ccc(NC(C)=O)cc2)NC1	inactive: -2.57% [at 46.1 µM]	–
Cc1ccc2nc(C)c3c(c2c1)N(c1ccc(F)cc1)CC3	inactive: -12.6%	–
CCOc1ccc(NC(=O)Nc2cccc(C)n2)cc1	–	inactive
Cc1ccc(-n2nc3c(N4CCC(C(=O)NCCc5ccccc5)CC4)nnc(C)c3c2C)cc1	inactive: -9.44% [at 46.1 µM]	–
Nc1cc[n+](CC(=O)c2ccc3c(c2)OCCO3)cc1	–	inconclusive: 23.1 µM [inhibitor, partial curve, poor fit]
O=C(NNC(=O)c1cccnc1SCc1cccc([N+](=O)[O-])c1)c1ccccn1	–	inconclusive: 6.51 µM [inhibitor, single point]
CCOc1ccc(C(O)Cn2c(=N)n(CCN3CCCCC3)c3ccccc32)cc1 (stereo not given)	–	inconclusive: 20.6 µM [inhibitor, single point]
COc1ccc(C2Nc3ccccc3-n3c(-c4ccccc4)c4c(=O)n(C)c(=O)n(C)c4c32)cc1 (stereo not given)	–	inconclusive: 35.5 µM [inhibitor, single point]
Cc1ccc2[nH]c(=O)c(CN(Cc3nnnn3Cc3ccccc3)C3CCCC3)cc2c1	–	inconclusive: 29.1 µM [inhibitor, single point]
CCC(C(=O)Nc1ccccc1F)N1C(=O)CN=C(c2ccccc2)c2ccccc21 (stereo not given)	–	inconclusive: 35.5 µM [inhibitor, partial curve, poor fit]

Single records, from the list above.
CCOc1ccc(C(O)Cn2c(=N)n(CCN3CCCCC3)c3ccccc32)cc1 (stereo not given) as listed: Potency: inconclusive: 20.6 µM [inhibitor, single point]
CCC(C(=O)Nc1ccccc1F)N1C(=O)CN=C(c2ccccc2)c2ccccc21 (stereo not given) as listed: Potency: inconclusive: 35.5 µM [inhibitor, partial curve, poor fit]
Cn1c(CSc2ncn[nH]2)nc2ccccc21 as listed: Potency: inconclusive: 3.16 µM [activator, partial curve, poor fit]
